Results from publication PMC11514270.
No constants are given. Whether binding was seen depends on the method and setting. In cells and extracts the contact can be indirect. Some results given as binding are weak or reduced against the parent protein; the word gives no strength.

Sequences of proteins named here, by UniProt entry; tags and fusion partners are left off. Residues count along the entry.
UniProt Q9H0J9: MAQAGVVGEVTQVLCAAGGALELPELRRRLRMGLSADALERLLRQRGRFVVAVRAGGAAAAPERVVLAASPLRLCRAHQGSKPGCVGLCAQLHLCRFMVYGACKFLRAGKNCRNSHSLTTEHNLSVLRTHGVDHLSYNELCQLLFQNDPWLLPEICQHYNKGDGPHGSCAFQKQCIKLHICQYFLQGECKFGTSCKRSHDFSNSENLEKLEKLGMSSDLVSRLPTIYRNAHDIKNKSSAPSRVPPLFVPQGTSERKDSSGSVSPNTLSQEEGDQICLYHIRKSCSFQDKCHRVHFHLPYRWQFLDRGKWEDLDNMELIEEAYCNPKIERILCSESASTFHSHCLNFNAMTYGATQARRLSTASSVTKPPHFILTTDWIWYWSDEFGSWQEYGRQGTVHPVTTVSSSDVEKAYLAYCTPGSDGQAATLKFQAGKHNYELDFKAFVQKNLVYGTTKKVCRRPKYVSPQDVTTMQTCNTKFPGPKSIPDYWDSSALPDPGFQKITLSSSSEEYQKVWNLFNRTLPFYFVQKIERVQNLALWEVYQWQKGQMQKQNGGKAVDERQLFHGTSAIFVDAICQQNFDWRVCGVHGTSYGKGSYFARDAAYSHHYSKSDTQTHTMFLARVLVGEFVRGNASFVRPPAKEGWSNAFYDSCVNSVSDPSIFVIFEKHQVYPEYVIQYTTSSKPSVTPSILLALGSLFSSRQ
UniProt P05161, residues 1-157: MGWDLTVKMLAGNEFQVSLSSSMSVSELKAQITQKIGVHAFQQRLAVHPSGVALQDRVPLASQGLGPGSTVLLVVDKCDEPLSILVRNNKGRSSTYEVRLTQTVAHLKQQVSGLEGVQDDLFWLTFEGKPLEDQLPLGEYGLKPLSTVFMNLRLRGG

What was measured:
[1] = molecular target: Poly (ADP-ribose) polymerase family member 12 (PARP12) (human (endogenous in primary human chondrocytes)) (UniProt Q9H0J9); experiment: co-IP; endogenous proteins of PHC lysate; IP of PARP12, immunoblot for ISG15 and MFN1/2 (antibodies in Table S3)
[2] = molecular target: Interferon-stimulated gene 15 (ISG15) (human (endogenous in primary human chondrocytes)) (UniProt P05161); experiment: co-IP; endogenous proteins of PHC lysate; reverse IP with antibodies to ISG15, MFN1 or MFN2, immunoblot for PARP12 (antibodies in Table S3)

Row | binding [1] | binding [2] | Substance
1 | binds | – | Interferon-stimulated gene 15 (ISG15) (from UniProt P05161 1-157)
2 | – | binds | Poly (ADP-ribose) polymerase family member 12 (PARP12) (from UniProt Q9H0J9 1-701)
